PubChem BioAssay AID686943, Drosophila RNAi Screening Center – 2013

Test: 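Knockdowns that increase or decrease active ERK after insulin receptor stimulation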 (primary screen)
System: Drosophila S2R+ haemocyte-like cells expressing YFP-tagged ERK (Rolled)
Reagent: long dsRNA against Drosophila genes
Treatment: insulin stimulation versus unstimulated cells; dose and duration not given
Read-out: 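Per-plate z-scores of phospho-ERK immunostaining normalised to YFP-tagged ERK, measured with and without insulin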
Scale: replicate 1, z-score of dpERK with insulin and replicate 2, z-score of dpERK with insulin: higher = more active ERK per ERK-YFP after insulin
The screen tested about 23,000 reagents; shown is a random part of those that have a named target and a result. 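Extra replicates exist only for a retested subset of genes; insulin dose and duration not given; both raised and lowered dpERK matter.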 Not all columns of the deposit are shown. The record does not give: the amount of reagent, the time to read-out.

CG12426 (GeneID 43342) [DRSC14516] showed replicate 1, z-score of dpERK with insulin 0.55; replicate 2, z-score of dpERK with insulin 0.08.
For fd59A (GeneID 37631) [DRSC04685] the deposit lists replicate 1, z-score of dpERK with insulin 0.52; replicate 2, z-score of dpERK with insulin -0.48.
Silencing of CG3609 (GeneID 33421) [DRSC00620] came out at: replicate 1, z-score of dpERK with insulin 0.05; replicate 2, z-score of dpERK with insulin -0.41.
Against Pdcd4 (GeneID 32337) [DRSC19360] the deposit lists replicate 1, z-score of dpERK with insulin 0.06; replicate 2, z-score of dpERK with insulin -1.02.
For CG33454 (GeneID 2768850) [DRSC22914] the deposit lists replicate 1, z-score of dpERK with insulin -2.64; replicate 2, z-score of dpERK with insulin 0.56.
Against Tina-1 (GeneID 37989) [DRSC04317], the values are replicate 1, z-score of dpERK with insulin -0.47; replicate 2, z-score of dpERK with insulin -0.34.
Knock-down of CG5681 (GeneID 35074) [DRSC02876] gave: replicate 1, z-score of dpERK with insulin 0.97; replicate 2, z-score of dpERK with insulin 0.17.
For Mtch (GeneID 38026) [DRSC08679], the entry reads replicate 1, z-score of dpERK with insulin 0.03; replicate 2, z-score of dpERK with insulin -0.06.
With knock-down of AnxB9 (GeneID 42492) [DRSC14111], the screen gave replicate 1, z-score of dpERK with insulin 0.08; replicate 2, z-score of dpERK with insulin -0.4.
After knock-down of CG14285 (GeneID 42281) [DRSC14766], the record shows replicate 1, z-score of dpERK with insulin -0.01; replicate 2, z-score of dpERK with insulin 0.22.
With knock-down of CG43181 (GeneID 12798292) [DRSC17559] the results were replicate 1, z-score of dpERK with insulin -0.98; replicate 2, z-score of dpERK with insulin -0.09.
Against Ir7e (GeneID 7354417) [DRSC18011], the entry reads replicate 1, z-score of dpERK with insulin 1.49; replicate 2, z-score of dpERK with insulin 3.07.
Against CG34323 (GeneID 5740207) [DRSC18916] the deposit lists replicate 1, z-score of dpERK with insulin 0.16; replicate 2, z-score of dpERK with insulin 0.22.
With knock-down of Sec61alpha (GeneID 33905) [DRSC03256], the record shows replicate 1, z-score of dpERK with insulin -0.9; replicate 2, z-score of dpERK with insulin -3.43.
CG31473 (GeneID 318753) [DRSC15443] showed replicate 1, z-score of dpERK with insulin 0.35; replicate 2, z-score of dpERK with insulin -0.16.
With knock-down of wuc (GeneID 36401) [DRSC06152] the results were replicate 1, z-score of dpERK with insulin -0.47; replicate 2, z-score of dpERK with insulin -0.15.
CG9903 (GeneID 32621) [DRSC20213] gave replicate 1, z-score of dpERK with insulin 0.31; replicate 2, z-score of dpERK with insulin 0.2.
Depletion of CG9222 (GeneID 33867) [DRSC03158] gave: replicate 1, z-score of dpERK with insulin -0.83; replicate 2, z-score of dpERK with insulin 0.18.
For CG7730 (GeneID 39908) [DRSC10909], the values are replicate 1, z-score of dpERK with insulin 0.04; replicate 2, z-score of dpERK with insulin 0.26.
Silencing of SpdS (GeneID 41167) [DRSC16408] gave: replicate 1, z-score of dpERK with insulin 0.3; replicate 2, z-score of dpERK with insulin 0.22.
CG7888 (GeneID 39232) [DRSC10926] gave replicate 1, z-score of dpERK with insulin 0.09; replicate 2, z-score of dpERK with insulin 0.51.
